# In patent publication US20180354921A1, “SUBSTITUTED OXADIAZOLES FOR COMBATING PHYTOPATHOGENIC FUNGI” (BASF SE, priority 2015, published 2018):
# Some results were stated once for a whole list of compounds, not compound by compound.
# Test system: Phakopsora pachyrhizi
# Assay: Protective control of soy bean rust on soy beans caused by Phakopsora pachyrhizi (glass house trial)
# Type: in vivo
# Conditions: 32 ppm active compound, leaves of pot-grown soy bean seedlings sprayed to run-off, inoculated after 2 days, assessed after fourteen days; untreated plants 80%
smiles,measurement,value
"O=C(Cc1ccccc1)Nc1ccc(-c2noc(C(F)(F)F)n2)cc1 [Ex-1, 2-phenyl-N-[4-[5-(trifluoromethyl)-1,2,4-oxadiazol-3-yl]phenyl]acetamide]",diseased leaf area,at most 11%
